Data as given in article PMC10353116.
No constants are given. Whether binding was seen depends on the method and setting. Binding seen in cells or lysates may run through a third protein. These calls come from enrichment with a bait or labelling near it, and not all partners need be listed.

The chains behind the UniProt entries cited, without tags or fusion partners. Residues count along the entry.
UniProt Q9H6L5: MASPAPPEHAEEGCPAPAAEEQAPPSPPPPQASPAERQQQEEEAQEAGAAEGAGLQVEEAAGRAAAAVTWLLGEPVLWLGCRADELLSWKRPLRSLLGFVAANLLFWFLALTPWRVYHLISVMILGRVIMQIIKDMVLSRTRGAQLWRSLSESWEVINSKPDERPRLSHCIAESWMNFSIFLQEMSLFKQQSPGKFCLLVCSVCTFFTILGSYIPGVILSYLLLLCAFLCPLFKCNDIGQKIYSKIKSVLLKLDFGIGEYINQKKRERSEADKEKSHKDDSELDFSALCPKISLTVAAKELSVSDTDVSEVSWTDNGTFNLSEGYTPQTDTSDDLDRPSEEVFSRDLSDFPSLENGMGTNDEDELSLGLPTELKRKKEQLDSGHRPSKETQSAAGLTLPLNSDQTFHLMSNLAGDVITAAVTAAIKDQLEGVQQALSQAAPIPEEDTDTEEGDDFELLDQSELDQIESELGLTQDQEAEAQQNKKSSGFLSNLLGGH
UniProt P36888, residues 27-993: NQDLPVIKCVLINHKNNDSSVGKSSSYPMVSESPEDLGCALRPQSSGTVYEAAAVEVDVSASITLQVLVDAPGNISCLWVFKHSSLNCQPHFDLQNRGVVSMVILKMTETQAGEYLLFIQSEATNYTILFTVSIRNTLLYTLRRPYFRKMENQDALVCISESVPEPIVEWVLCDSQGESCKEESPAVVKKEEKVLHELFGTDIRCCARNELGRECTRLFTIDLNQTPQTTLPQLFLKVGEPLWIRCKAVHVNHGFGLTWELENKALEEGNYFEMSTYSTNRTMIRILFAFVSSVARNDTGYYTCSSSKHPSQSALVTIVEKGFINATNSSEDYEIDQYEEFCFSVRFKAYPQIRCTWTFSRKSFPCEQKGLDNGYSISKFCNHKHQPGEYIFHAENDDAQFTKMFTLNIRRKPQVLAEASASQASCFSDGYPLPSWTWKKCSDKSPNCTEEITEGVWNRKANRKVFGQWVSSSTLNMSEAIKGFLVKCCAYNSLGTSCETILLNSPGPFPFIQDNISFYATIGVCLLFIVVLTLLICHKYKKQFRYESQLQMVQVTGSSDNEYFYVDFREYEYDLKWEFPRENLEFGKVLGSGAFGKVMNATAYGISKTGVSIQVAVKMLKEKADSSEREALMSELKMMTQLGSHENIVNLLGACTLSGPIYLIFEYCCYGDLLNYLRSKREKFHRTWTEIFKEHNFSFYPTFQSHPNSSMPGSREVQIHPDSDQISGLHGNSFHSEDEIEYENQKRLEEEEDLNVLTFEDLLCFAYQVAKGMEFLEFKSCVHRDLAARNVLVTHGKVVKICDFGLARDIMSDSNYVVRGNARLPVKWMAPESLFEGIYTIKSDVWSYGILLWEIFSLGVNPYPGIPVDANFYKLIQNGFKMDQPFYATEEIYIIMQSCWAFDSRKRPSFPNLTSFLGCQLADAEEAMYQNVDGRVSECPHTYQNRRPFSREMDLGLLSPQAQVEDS

Target: Family with sequence similarity 134 member B (FAM134B) (human) (UniProt Q9H6L5)
Experiment: affinity purification with mass spectrometry; immunoprecipitation of FAM134B, Coomassie-stained gel, MS sequencing; cells and conditions not stated

binding: binds
Substance: FMS related receptor tyrosine kinase 3 (FLT3) (from UniProt P36888 27-993)
